In assay [1] the target is T1, EDF1 (endogenous, NC/control neuroblastoma cells) (human (endogenous in NB cell lines)) (UniProt O60869).
T1 sequence: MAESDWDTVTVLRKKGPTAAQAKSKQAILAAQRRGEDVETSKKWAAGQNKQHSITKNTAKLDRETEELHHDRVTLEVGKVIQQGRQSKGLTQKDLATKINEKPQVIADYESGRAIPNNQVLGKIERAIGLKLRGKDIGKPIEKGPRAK
Briefly: co-IP; NB cell lysates immunoprecipitated by anti-EDF1 antibody, blotted for NF-κB p65/RelA; IgG as negative control.

Sequences of proteins named here, by UniProt entry; tags and fusion partners are left off.
UniProt Q04206: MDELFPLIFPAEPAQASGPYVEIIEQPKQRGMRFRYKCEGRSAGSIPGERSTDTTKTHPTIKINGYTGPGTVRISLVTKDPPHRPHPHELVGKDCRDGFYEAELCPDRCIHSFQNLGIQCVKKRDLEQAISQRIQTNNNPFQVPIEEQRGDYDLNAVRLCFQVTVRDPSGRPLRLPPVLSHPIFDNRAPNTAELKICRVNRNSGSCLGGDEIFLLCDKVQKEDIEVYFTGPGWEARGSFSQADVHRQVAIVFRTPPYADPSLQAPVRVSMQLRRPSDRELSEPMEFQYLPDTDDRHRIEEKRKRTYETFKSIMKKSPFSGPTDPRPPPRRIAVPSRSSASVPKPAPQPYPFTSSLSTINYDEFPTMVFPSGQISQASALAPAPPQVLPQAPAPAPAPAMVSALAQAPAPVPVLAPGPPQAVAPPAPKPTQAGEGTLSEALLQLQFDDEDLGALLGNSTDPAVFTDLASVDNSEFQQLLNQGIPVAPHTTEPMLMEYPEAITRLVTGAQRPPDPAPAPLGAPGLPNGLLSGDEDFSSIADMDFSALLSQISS

Assay [2] deals with NF-κB p65/RelA (human (endogenous in NB cell lines)) (UniProt Q04206). The assay can be described thus: co-IP; NB cell lysates (NC and EDF1-overexpressed) immunoprecipitated by anti-NF-κB p65/RelA antibody, blotted for EDF1; IgG as negative control.

These are yes or no findings as the source states them, for the method shown. Binding seen in cells or lysates may run through a third protein. Some entries that bind do so weakly or less than the wild type.

With “NF-κB p65/RelA (from UniProt Q04206 1-551)”, the binding result in assay [1] is reported as “binds”.

B1: EDF1 (endogenous, NC/control neuroblastoma cells) (protein, UniProt O60869 1-148)
chain: T1 sequence
With B1, the binding result in assay [2] is given as “binds”.

B2: EDF1, full-length, overexpressed in NB cells (pcDNA3.1) (protein, UniProt O60869 1-148)
chain: T1 sequence
As to B2, in assay [2], the binding result is given as “binds”.

(Values after publication PMC11792593.)
